Test results taken from US8722649B2, “Alpha-chloro and alpha-bromo phosphonate analogs of lysophosphatidic acid and methods of making and using thereof” (University of Utah Research Foundation, priority 2007, dated 2014).
“Also recorded” adds a separate entry of the source. At least one structure is not confirmed: it was looked up by name or label, or the drawing left a doubt.

The chains behind the UniProt entries cited, without tags or fusion partners. Where a name states a change or a piece, a line headed by the entry shows the natural chain unless it says otherwise.
UniProt Q92633: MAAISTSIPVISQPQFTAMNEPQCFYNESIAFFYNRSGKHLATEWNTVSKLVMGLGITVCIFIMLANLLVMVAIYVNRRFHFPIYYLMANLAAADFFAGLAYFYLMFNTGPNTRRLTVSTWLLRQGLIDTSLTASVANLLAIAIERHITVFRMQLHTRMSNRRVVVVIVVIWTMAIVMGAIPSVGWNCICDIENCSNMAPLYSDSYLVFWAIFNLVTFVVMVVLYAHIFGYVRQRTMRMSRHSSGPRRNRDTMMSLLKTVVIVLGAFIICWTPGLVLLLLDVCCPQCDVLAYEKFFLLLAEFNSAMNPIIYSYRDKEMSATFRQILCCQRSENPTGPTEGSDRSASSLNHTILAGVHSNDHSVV
UniProt Q9HBW0, whole entry: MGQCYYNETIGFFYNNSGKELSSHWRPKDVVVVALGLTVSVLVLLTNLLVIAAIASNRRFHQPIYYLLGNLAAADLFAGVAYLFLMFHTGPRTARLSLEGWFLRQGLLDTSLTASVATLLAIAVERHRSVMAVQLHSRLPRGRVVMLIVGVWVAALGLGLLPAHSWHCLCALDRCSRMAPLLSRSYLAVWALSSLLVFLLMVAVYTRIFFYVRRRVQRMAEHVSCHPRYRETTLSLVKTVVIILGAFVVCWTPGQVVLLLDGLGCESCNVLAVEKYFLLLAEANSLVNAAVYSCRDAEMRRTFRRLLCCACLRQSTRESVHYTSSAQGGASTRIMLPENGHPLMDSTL
UniProt Q99677: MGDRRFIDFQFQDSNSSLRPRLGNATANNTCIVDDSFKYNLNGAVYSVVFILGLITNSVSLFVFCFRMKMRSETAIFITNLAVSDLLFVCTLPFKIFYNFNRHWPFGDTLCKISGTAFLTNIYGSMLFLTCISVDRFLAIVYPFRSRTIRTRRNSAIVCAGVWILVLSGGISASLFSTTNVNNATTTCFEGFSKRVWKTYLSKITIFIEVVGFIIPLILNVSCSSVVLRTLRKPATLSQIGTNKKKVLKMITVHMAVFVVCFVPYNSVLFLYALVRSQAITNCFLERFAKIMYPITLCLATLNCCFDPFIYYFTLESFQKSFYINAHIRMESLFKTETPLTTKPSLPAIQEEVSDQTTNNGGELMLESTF

What was measured:
[1] = target: T1, human LPA1 (Homo sapiens, UniProt Q92633); experiment: Ca2+ mobilization assay, LPA1; format: cell-based; conditions: agonist/antagonist in words
T1 construct: expressed in transfected cells
Description: (§1) Receptor activation using Ca^2+ mobilization assay for diastereomers of 1 (also represented as 19b). The rat hepatoma (RH7777) cell lines individually expressing either LPA1, LPA2, LPA3 or LPA5 receptors and Chinese hamster ovary (CHO) cell line were analyzed to examine agonism and antagonism. […] CHO cells stably expressing either vector or LPA4 were kindly gifted from Dr. Shimizu (University of Tokyo, Tokyo, Japan).
(§2) Stable transformants of LPA1/2/3 receptors. RH7777 cells stably expressing each receptor were plated onto poly-L-lysine (PLL) (0.1 mg/mL)-coated black-wall clear-bottom 96-well plates (Corning Incorporated Life Sciences, Acton, Mass.) at a density of 5×10^4 cells/well and cultured overnight. The following day, the culture medium was replaced with modified Krebs buffer (120 mM NaCl, 5 mM KCl, 0.62 mM MgSO4, 1.8 mM CaCl2, 10 mM HEPES, 6 mM glucose, pH 7.4), and the cells were serum starved for 6 h. […]
After incubating the cells with Fura-2 AM, the cells were rinsed with Krebs buffer and changes in the intracellular Ca^2+ concentration were monitored by determining the ratio of emitted light intensities at 520 nm in response to excitation at 340 and 380 nm using FLEXstation II (Molecular Devices, Sunnyvale, Calif.). Each well was monitored for 80-120 sec. […] To determine antagonist properties, varying concentrations of the compounds were mixed with a constant concentration of LPA and responses were monitored. […] EC50, IC50, and Ki values were calculated by fitting a sigmoid function to data points with the nonlinear curve-fitting feature of KaleidaGraph (Synergy Software, Essex Junction, Vt.).
Receptor activation using Ca^2+ mobilization assay. […] Using a FLEXStation (Molecular Devices, Sunnyvale, Calif.), changes in intracellular Ca^2+ concentration were monitored. Ligand-induced changes in fluorescence were monitored for 80-120 seconds. Ca^2+ transients were quantified automatically by calculating the difference between maximum and baseline ratio values for each sample. […] EC50, IC50, and Ki values were calculated as described. […]

[2] = target: T2, human LPA2 (Homo sapiens, UniProt Q9HBW0); experiment: Ca2+ mobilization assay, LPA2; format: cell-based; conditions: agonist/antagonist in words
T2 construct: expressed in transfected cells
Description: as §1, §2
(§3) After incubating the cells with Fura-2 AM, the cells were rinsed with Krebs buffer and changes in the intracellular Ca^2+ concentration were monitored by determining the ratio of emitted light intensities at 520 nm in response to excitation at 340 and 380 nm using FLEXstation II (Molecular Devices, Sunnyvale, Calif.). Each well was monitored for 80-120 sec. […] EC50, IC50, and Ki values were calculated by fitting a sigmoid function to data points with the nonlinear curve-fitting feature of KaleidaGraph (Synergy Software, Essex Junction, Vt.).
(§4) Receptor activation using Ca^2+ mobilization assay. […] Using a FLEXStation (Molecular Devices, Sunnyvale, Calif.), changes in intracellular Ca^2+ concentration were monitored. Ligand-induced changes in fluorescence were monitored for 80-120 seconds. Ca^2+ transients were quantified automatically by calculating the difference between maximum and baseline ratio values for each sample. […] EC50, IC50, and Ki values were calculated as described. The ligand properties of the compounds were evaluated using Ca^2+ mobilization assay for assessing the activation/inhibition of LPA1, LPA2, and LPA3 expressed in RH7777 cells and LPA4 expressed in CHO cells.

[3] = target: T3, human LPA3 (Homo sapiens, UniProt Q9UBY5); experiment: Ca2+ mobilization assay, LPA3; format: cell-based; conditions: agonist/antagonist in words
T3 construct: expressed in transfected cells
T3 sequence (Q9UBY5 1-353): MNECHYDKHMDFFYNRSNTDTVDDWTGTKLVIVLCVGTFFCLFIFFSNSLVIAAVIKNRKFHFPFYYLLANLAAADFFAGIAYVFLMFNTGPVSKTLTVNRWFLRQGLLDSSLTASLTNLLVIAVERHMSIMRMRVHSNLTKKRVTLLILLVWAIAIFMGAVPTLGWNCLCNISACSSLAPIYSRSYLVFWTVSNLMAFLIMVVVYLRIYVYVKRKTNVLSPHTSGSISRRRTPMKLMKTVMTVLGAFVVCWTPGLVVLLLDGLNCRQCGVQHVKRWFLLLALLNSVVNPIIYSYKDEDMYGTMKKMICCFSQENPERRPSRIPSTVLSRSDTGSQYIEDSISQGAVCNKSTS
Description: as §1, §2, §3, §4

[4] = target: T4, human LPA4 (Homo sapiens, UniProt Q99677); experiment: Ca2+ mobilization assay, LPA4 in CHO cells; format: cell-based; conditions: agonist/antagonist in words
T4 construct: expressed in transfected cells
Description: as §1
Stable transformants of LPA4. CHO cells stably expressing either vector or LPA4 were plated on non-coated 96 well plates at a density of 4×10^4 cells/well and cultured overnight. The following day, cells were loaded with Fura-2 AM for 1 h in modified Krebs buffer containing 2% (v/v) pluronic acid and 2.5 mM probenecid.
After incubating the cells with Fura-2 AM, the cells were rinsed with Krebs buffer and changes in the intracellular Ca^2+ concentration were monitored by determining the ratio of emitted light intensities at 520 nm in response to excitation at 340 and 380 nm using FLEXstation II (Molecular Devices, Sunnyvale, Calif.). Each well was monitored for 80-120 sec. For testing agonist activity of the compounds, the test compounds were added automatically after 15 sec of baseline measurement. […] Each test was performed in quadruplicate. EC50, IC50, and Ki values were calculated by fitting a sigmoid function to data points with the nonlinear curve-fitting feature of KaleidaGraph (Synergy Software, Essex Junction, Vt.).
Receptor activation using Ca^2+ mobilization assay. The assay for mobilization of intracellular Ca^2+ was performed as described. Briefly, rat hepatoma RH7777 cells stably expressing human LPA1, LPA2, or LPA3, and CHO cells stably expressing LPA4, were loaded with Fura-2 AM (Molecular Probes). Using a FLEXStation (Molecular Devices, Sunnyvale, Calif.), changes in intracellular Ca^2+ concentration were monitored. Ligand-induced changes in fluorescence were monitored for 80-120 seconds. Ca^2+ transients were quantified automatically by calculating the difference between maximum and baseline ratio values for each sample. […] Each test was performed in quadruplicate. EC50, IC50, and Ki values were calculated as described. The ligand properties of the compounds were evaluated using Ca^2+ mobilization assay for assessing the activation/inhibition of LPA1, LPA2, and LPA3 expressed in RH7777 cells and LPA4 expressed in CHO cells.

[5] = target: T5, PPARγ (Homo sapiens, UniProt P37231); experiment: PPARγ activation assay (PPRE-Acox-Rluc reporter in CV-1 cells); format: cell-based; conditions: 10 μM test analogue, 20 h
T5 construct: expressed in transfected cells; host or cells: CV-1 cells, transient (LipofectAMINE 2000)
T5 sequence (P37231 1-505): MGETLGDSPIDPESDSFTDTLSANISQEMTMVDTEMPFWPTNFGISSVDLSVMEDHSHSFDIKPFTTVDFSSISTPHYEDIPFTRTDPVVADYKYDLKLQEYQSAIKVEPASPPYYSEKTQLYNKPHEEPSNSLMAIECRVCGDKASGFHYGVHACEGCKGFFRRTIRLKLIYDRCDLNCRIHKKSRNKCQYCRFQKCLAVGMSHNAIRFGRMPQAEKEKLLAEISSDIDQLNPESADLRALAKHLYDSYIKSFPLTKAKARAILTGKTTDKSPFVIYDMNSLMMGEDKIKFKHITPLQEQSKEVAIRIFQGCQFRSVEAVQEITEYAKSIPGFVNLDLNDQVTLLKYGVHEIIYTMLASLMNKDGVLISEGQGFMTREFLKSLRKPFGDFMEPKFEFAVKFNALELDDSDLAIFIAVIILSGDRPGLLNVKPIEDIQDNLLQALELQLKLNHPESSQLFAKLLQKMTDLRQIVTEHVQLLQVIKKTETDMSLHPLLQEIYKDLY
Description: PPARγ activation assay. PPARγ activation was performed using CV-1 cells transfected with an acyl-coenzyme A oxidase-luciferase (PPRE-Acox-Rluc) reporter gene construct as previously reported. Briefly, CV-1 cells were plated in 96-well plates at a density of 1×10^4 cells per well in Dulbecco's modified Eagle's medium supplemented with 10% fetal bovine serum. The next day, the cells were transiently transfected with 125 ng of pGL3-PPRE-Acox-Rluc, 62.5 ng of pcDNA3.1 PPARγ, and 12.5 ng of pSV-β-galactosidase (Promega) using LipofectAMINE 2000 (Invitrogen). Twenty-four hours after transfection, cells were treated with OptiMEM (Invitrogen) containing 10 μM Rosiglitazone or 10 μM of the test analogue dissolved in DMSO for 20 h. Luciferase and β-galactosidase activities were measured with Steady-Glo® Luciferase Assay System (Promega) and the Galacto-Light Plus™ system (Applied Biosystems), respectively. Samples were run in quadruplicate and the mean ±standard errors were calculated. Data are representative of at least two independent transfections.

[6] = test system: LPA GPCRs; experiment: Ca2+ mobilization assay, overall profile across LPA GPCRs; format: cell-based, human; conditions: across LPA1-4
Description: After incubating the cells with Fura-2 AM, the cells were rinsed with Krebs buffer and changes in the intracellular Ca^2+ concentration were monitored by determining the ratio of emitted light intensities at 520 nm in response to excitation at 340 and 380 nm using FLEXstation II (Molecular Devices, Sunnyvale, Calif.). Each well was monitored for 80-120 sec. For testing agonist activity of the compounds, the test compounds were added automatically after 15 sec of baseline measurement. To determine antagonist properties, varying concentrations of the compounds were mixed with a constant concentration of LPA and responses were monitored. Each test was performed in quadruplicate. EC50, IC50, and Ki values were calculated by fitting a sigmoid function to data points with the nonlinear curve-fitting feature of KaleidaGraph (Synergy Software, Essex Junction, Vt.).
Receptor activation using Ca^2+ mobilization assay. The assay for mobilization of intracellular Ca^2+ was performed as described. Briefly, rat hepatoma RH7777 cells stably expressing human LPA1, LPA2, or LPA3, and CHO cells stably expressing LPA4, were loaded with Fura-2 AM (Molecular Probes). Using a FLEXStation (Molecular Devices, Sunnyvale, Calif.), changes in intracellular Ca^2+ concentration were monitored. Ligand-induced changes in fluorescence were monitored for 80-120 seconds. Ca^2+ transients were quantified automatically by calculating the difference between maximum and baseline ratio values for each sample. To determine antagonist properties, different concentrations of each analogue were mixed with either palmitoyl (16:0) or oleoyl (18:1) LPA (200 nM for LPA1 and LPA3, 10 nM for LPA2, and 400 nM for LPA4) (Avanti Polar Lipids, Inc., […], Ala.) and responses were recorded. Each test was performed in quadruplicate. EC50, IC50, and Ki values were calculated as described. The ligand properties of the compounds were evaluated using Ca^2+ mobilization assay for assessing the activation/inhibition of LPA1, LPA2, and LPA3 expressed in RH7777 cells and LPA4 expressed in CHO cells. Table l illustrates calcium responses elicited through the activation of human LPA1, LPA2, LPA3 and LPA4 receptors. These cell lines have been used extensively for the characterization of LPA GPCR ligands because RH7777 cells are intrinsically unresponsive to LPA and CHO cells show minimal endogenous responses to LPA unless transfected with LPA4.

CCCCCCCC/C=C\CCCCCCCC(=O)OC[C@@H](O)CC(Cl)P(=O)(O)O (mixture of isomers) [Compound 18a, [1-Chloro-3(S)-hydroxyl-4-(oleoyloxy)butyl]-phosphonate]
LPA1 ligand type [1]: partial agonist
LPA2 ligand type [2]: antagonist
LPA3 ligand type [3]: agonist effects
LPA4 ligand type [4]: agonist effects
PPARγ (PPRE luciferase reporter gene assay) [5]: NE (NE = no effect was shown at the highest concentration (30 μM) tested.)
overall LPA GPCR ligand profile [6]: mixed agonist-antagonist profile

CCCCCCCCCCCCCCCC(=O)OC[C@@H](O)CC(Cl)P(=O)(O)O (mixture of isomers) [Compound 18b, [1-Chloro-3(S)-hydroxyl-4-(palmitoyloxy)butyl]-phosphonate]
PPARγ (PPRE luciferase reporter gene assay) [5]: NE (NE = no effect was shown at the highest concentration (30 μM) tested.)
overall LPA GPCR ligand profile [6]: pan-antagonist

CCCCCCCC/C=C\CCCCCCCC(=O)OC[C@@H](O)CC(Br)P(=O)(O)O (mixture of isomers) [Compound 19a, [1-Bromo-3(S)-hydroxyl-4-(oleoyloxy)butyl]-phosphonate]
LPA1 ligand type [1]: strong antagonist activities
LPA2 ligand type [2]: strong antagonist activities
LPA3 ligand type [3]: partial LPA3 agonist activity
LPA4 ligand type [4]: strong antagonist activities; also recorded: LPA4 antagonists
PPARγ (PPRE luciferase reporter gene assay) [5]: NE (NE = no effect was shown at the highest concentration (30 μM) tested.)
overall LPA GPCR ligand profile [6]: mixed profile of agonist and antagonist effects
